Results reported in patent US5849745A, “N-benzylpiperazine compounds” (ADIR et Compagnie, priority 1996, dated 1998).
For at least one compound, name, drawing or mass did not settle the structure.

Tests used:
[1] = tested on: mitochondrial ATP synthesis (isolated rat liver mitochondria); experiment: Mitochondrial energy (ATP) production during experimental calcium overload (cyclosporin A), isolated rat liver mitochondria; format: biochemical; conditions: 1×10^-6 M
Method: Briefly, the mitochondria are extracted from rat livers. Mitochondrial respiration (1.5 mg of proteins placed in a reaction chamber) is brought about by the addition of sodium succinate, which is used as substrate (at 6×10^-4 M) and oxidative phosphorylation is triggered by the addition of ADP to the survival medium up to a final concentration of 1×10^-5 M. By recording the rates of oxygen consumption (in nmol/min./mg of mitochondrial protein) it is possible to calculate the characteristic parameters of the mitochondrial energy synthesis in the form of ATP.

[2] = tested on: isolated rat heart (myocardium); conditions: Lavanchy et al., 1987; cited from earlier work

Structure (SMILES): COc1ccc(CN2CCNCC2)c(OC)c1OC [trimetazidine, 2,3,4-trimethoxybenzylpiperazine, reference compound]
- restoration of mitochondrial ATP synthesis [1]: 47%
- effects accompanying the antiischemic effects in a test on isolated rat heart [2]: a reduction in the ischemic acidosis and protection of the ATP-producing mechanisms
